Data taken from the supplement of paper PMC11732987, “Enantioselective OTUD7B fragment discovery through chemoproteomics screening and high-throughput optimisation” (Communications Chemistry, 2025).
The list shows a part of the results. The data scatter; read single values as rough.

Amino acid sequences for entries named in this document (tags omitted). A change or cut given only in a name is not applied to a line headed by its entry. Residues count along the entry.
UniProt P09960: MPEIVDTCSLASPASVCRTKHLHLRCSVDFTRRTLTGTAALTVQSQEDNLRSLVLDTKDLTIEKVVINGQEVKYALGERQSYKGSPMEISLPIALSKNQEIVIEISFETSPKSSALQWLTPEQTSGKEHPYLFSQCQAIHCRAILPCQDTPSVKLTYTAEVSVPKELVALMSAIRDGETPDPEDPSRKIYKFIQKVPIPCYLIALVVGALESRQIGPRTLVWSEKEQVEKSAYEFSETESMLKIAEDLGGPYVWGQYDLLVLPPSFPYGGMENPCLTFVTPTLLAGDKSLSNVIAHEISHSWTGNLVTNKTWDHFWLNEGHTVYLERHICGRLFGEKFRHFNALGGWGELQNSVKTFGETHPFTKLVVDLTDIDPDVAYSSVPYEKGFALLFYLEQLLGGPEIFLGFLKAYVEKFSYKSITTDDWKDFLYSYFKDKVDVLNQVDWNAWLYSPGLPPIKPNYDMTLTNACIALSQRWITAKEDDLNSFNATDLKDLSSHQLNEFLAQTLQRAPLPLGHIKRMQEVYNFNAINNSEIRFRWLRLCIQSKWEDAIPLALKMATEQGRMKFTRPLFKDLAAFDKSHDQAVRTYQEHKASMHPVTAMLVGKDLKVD
UniProt Q8N1G4, 206-226: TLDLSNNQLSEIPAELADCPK
UniProt Q8TCA0: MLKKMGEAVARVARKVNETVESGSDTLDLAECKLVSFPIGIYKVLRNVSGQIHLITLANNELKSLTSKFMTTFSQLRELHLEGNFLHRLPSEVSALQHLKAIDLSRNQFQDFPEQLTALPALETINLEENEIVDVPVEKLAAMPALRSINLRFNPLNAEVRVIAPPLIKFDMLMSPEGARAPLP
UniProt P49137, whole entry, looked up: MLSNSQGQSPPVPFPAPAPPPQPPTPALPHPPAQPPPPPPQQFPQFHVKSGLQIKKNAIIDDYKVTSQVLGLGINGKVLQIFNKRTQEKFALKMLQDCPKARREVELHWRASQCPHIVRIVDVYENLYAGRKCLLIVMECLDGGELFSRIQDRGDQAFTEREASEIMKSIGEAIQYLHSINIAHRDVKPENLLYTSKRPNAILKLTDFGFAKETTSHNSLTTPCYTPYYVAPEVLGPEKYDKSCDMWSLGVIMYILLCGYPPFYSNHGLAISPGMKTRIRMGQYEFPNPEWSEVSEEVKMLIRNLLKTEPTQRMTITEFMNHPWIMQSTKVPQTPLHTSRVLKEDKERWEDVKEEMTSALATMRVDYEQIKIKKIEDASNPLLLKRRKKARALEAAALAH
UniProt Q9HCC0, 249-268: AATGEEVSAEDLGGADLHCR
UniProt Q13233: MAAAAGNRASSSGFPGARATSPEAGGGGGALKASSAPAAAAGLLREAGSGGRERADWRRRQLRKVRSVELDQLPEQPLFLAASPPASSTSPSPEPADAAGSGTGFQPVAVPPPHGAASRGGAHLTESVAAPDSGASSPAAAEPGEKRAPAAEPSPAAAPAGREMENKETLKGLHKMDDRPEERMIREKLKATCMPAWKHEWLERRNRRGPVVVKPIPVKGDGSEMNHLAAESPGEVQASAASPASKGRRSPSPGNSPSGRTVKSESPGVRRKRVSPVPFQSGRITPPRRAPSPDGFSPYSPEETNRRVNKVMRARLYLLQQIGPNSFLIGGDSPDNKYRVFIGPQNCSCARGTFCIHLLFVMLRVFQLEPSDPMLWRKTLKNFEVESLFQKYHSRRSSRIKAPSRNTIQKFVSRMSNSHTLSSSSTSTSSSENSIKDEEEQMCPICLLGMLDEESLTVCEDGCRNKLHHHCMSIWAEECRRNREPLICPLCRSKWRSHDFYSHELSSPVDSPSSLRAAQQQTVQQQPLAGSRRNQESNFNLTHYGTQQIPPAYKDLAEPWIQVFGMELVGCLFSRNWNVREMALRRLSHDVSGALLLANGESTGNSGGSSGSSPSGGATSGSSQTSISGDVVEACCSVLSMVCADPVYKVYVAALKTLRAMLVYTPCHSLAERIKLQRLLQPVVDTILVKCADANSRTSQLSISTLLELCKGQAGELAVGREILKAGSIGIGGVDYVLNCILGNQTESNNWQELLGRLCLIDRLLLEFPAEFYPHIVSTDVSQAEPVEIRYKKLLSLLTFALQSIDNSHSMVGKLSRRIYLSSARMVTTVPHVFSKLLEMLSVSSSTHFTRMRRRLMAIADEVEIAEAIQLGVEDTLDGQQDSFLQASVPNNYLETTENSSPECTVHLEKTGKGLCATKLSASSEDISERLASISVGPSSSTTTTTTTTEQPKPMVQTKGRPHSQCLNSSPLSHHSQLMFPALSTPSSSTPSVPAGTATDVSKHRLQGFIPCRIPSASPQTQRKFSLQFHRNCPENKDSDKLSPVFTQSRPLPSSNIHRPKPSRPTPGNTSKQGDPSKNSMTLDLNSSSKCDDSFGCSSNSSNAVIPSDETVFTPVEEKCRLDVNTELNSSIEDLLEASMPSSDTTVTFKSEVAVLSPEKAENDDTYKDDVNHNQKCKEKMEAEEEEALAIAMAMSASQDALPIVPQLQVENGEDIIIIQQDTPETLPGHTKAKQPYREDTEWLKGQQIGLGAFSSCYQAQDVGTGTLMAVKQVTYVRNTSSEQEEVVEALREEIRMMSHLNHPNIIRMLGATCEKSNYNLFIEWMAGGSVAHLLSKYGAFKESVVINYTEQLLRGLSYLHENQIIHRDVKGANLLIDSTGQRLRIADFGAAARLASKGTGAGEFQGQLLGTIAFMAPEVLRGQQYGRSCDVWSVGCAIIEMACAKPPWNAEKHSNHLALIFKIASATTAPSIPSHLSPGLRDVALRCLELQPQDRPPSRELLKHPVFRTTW
UniProt Q6ZWT7: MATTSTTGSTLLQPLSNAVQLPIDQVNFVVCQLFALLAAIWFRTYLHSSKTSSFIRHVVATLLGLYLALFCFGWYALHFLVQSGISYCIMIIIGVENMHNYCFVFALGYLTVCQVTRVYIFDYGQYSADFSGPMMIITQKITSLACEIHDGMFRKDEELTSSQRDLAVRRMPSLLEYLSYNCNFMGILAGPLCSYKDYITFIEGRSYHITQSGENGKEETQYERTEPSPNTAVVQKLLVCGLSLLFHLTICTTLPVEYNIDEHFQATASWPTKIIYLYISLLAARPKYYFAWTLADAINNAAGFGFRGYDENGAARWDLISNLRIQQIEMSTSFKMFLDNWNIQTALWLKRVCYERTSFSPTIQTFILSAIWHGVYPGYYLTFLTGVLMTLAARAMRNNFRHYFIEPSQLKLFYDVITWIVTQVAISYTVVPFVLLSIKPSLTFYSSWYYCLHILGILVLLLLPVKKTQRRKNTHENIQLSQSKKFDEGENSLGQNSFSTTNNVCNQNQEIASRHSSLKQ
UniProt Q9H9A6: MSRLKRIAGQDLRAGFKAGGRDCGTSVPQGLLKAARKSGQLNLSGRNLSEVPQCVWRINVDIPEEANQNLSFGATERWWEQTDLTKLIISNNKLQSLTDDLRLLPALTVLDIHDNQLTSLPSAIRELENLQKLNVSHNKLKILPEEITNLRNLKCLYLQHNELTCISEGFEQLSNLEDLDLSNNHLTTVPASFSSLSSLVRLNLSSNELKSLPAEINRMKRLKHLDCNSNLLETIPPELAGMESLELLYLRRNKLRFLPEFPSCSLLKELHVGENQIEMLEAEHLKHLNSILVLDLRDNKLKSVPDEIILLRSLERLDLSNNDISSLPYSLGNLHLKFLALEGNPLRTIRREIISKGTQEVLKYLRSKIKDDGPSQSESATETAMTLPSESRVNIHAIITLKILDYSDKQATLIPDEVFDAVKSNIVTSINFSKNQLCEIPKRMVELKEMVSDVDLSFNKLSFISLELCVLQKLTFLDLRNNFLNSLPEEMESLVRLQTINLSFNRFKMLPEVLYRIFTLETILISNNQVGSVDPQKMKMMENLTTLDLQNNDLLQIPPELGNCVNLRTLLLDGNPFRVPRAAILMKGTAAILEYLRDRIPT
UniProt P25205: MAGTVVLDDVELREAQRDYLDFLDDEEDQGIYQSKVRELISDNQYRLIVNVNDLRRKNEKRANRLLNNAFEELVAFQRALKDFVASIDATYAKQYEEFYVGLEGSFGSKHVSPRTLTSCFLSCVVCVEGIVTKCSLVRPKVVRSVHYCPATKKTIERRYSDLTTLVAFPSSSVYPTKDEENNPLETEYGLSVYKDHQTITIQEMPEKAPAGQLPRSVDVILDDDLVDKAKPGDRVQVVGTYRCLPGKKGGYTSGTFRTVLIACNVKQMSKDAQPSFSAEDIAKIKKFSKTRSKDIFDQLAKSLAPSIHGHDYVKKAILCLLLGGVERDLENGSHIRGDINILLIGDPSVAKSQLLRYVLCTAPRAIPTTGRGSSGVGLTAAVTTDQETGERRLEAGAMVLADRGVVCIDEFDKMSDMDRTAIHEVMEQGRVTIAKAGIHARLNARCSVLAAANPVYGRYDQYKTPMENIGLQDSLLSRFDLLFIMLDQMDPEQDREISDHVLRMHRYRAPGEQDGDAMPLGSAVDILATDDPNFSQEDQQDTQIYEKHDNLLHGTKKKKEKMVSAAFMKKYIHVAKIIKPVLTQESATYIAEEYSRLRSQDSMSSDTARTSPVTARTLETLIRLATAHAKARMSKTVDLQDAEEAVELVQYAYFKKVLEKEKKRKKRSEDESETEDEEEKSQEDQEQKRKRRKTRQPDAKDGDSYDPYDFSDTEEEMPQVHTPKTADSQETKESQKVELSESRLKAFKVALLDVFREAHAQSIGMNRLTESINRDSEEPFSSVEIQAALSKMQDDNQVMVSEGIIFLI
UniProt Q9Y6R4, 178-197: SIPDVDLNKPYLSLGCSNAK
UniProt Q13163: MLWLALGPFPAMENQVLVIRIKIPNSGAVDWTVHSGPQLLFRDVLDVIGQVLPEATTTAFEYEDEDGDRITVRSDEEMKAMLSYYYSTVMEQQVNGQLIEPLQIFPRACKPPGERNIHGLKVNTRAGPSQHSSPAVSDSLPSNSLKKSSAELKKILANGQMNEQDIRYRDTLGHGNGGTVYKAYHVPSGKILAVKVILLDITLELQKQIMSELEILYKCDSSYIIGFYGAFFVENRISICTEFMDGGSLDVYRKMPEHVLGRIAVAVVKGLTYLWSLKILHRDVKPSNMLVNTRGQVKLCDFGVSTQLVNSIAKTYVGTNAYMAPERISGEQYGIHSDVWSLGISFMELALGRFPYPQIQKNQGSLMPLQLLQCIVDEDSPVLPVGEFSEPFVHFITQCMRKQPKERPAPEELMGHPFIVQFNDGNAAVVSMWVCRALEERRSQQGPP
UniProt P52564: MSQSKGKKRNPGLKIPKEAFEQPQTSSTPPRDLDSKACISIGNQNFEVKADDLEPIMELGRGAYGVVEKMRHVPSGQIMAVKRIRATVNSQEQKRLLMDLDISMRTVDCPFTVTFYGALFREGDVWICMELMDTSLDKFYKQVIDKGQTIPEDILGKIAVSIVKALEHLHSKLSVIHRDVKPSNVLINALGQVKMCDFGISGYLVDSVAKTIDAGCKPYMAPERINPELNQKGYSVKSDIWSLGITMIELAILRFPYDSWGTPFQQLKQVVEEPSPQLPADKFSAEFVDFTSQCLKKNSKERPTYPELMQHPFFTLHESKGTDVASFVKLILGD
UniProt O95232: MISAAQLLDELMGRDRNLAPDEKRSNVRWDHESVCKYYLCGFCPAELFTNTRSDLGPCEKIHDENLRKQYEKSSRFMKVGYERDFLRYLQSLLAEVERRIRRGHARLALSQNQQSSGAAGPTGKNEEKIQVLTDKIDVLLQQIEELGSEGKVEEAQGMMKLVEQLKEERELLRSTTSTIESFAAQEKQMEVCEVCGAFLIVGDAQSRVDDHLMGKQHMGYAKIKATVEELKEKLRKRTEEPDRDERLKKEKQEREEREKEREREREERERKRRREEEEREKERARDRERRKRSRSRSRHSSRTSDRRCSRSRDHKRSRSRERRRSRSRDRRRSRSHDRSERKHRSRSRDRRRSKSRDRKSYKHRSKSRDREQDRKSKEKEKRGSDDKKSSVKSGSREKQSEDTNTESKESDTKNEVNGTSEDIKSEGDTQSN
UniProt P33993, 44-71: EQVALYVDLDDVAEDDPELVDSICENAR
UniProt Q9H089: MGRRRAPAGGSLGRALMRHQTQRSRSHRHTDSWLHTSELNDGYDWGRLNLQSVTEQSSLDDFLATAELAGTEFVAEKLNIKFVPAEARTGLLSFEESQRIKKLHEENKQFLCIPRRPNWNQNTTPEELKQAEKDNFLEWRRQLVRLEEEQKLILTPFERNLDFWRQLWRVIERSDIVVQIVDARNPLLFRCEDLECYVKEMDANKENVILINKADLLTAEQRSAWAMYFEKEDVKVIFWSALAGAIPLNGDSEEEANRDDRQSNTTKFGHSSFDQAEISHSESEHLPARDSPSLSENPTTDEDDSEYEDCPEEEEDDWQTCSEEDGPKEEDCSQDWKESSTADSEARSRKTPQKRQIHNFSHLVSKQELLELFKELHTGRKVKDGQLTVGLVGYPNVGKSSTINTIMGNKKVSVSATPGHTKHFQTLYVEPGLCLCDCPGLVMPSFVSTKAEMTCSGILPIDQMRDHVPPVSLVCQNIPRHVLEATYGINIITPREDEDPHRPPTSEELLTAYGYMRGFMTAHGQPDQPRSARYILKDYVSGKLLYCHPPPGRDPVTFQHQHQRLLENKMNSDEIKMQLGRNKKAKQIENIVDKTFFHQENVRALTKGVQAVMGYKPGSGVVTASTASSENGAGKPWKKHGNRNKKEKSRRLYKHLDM

What was measured:
[1] = compound: ClCC(=O)N[C@@H]1CCCc2ccccc12; test: log2 mean competition ratio of IA-DTB cysteine labelling (DMSO/compound) (log2 ratio); higher = stronger cysteine engagement by compound; settings: treatment time: 4 h, cell line lysate: HEK293T
Description: (§1)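 IA-DTB competitive cysteine chemoproteomics in HEK293T RIPA lysate. Lysates were treated with compound 29 or 30 at 50 or 200 µM for 4 h, then IA-DTB (500 µM, 1 h), trypsin-digested, NeutrAvidin-enriched and analysed by diaPASEF. Competition ratio = intensity DMSO / intensity compound (n=4 treated, n=64 DMSO); binding: mean log2 CR ≥ 1 and p ≤ 0.05 plus QC filters. Target is the cysteine site.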

[2] = compound: ClCC(=O)N[C@H]1CCCc2ccccc12; test: as above; settings: treatment time: 4 h, cell line lysate: HEK293T
Description: as §1

Row | Target | log2 mean competition ratio ([1]; 50 µM) | log2 mean competition ratio ([1]; 200 µM) | log2 mean competition ratio ([2]; 50 µM) | log2 mean competition ratio ([2]; 200 µM)
1 | LRRC41 C520 (UniProt Q15345) | 0.101 | 0.309 | 0.0531 | 0.322
2 | MAP2K1 C341 (UniProt Q02750) | 0.017 | 0.453 | -0.169 | 0.328
3 | MAD1L1 C662 (UniProt Q9Y6D9) | 0.204 | 0.261 | -0.261 | 0.113
4 | LTA4H C147 (UniProt P09960) | -0.29 | 0.118 | -0.27 | 0.146
5 | LRRC47 C224 (UniProt Q8N1G4) | 0.125 | -0.0378 | 0.106 | -0.221
6 | MAPRE3 C182 (UniProt Q9UPY8) | -0.000916 | -0.0104 | 0.19 | 0.0135
7 | MAGEE1 C429 | 0.305 | -0.241 | 0.0442 | -0.0959
8 | LRRC20 C32 (UniProt Q8TCA0) | -0.24 | 0.0715 | -0.195 | 0.0667
9 | LSS C6 (UniProt P48449) | -0.147 | -0.0961 | 0.00614 | 0.225
10 | LTN1 C237 (UniProt O94822) | 0.296 | -0.188 | -0.157 | -0.215
11 | LRRC8D C218 (UniProt Q7L1W4) | 0.13 | -0.0456 | -0.345 | -0.0839
12 | MARS1 C333 | -0.0179 | -0.273 | 0.0144 | -0.34
13 | MAPKAPK2 C114 (UniProt P49137) | 0.211 | -0.282 | 0.0882 | -0.314
14 | MCM8 C235 | -0.0587 | -0.269 | 0.372 | -0.0339
15 | MAVS C46 (UniProt Q7Z434) | 0.318 | 0.00714 | 0.587 | -0.0793
16 | MBD4 C324 (UniProt O95243) | 0.0715 | -0.0908 | -0.123 | 0.0878
17 | MAP1B C2041 (UniProt P46821) | -0.334 | 0.472 | -0.315 | 0.343
18 | MCCC2 C267 (UniProt Q9HCC0) | -0.302 | 0.0631 | 0.0394 | 0.162
19 | MAP3K1 C1488 (UniProt Q13233) | 0.236 | 0.295 | -0.251 | 0.0395
20 | MBOAT2 C146 (UniProt Q6ZWT7) | 0.161 | -0.0573 | -0.451 | -0.0162
21 | LRRC40 C23 (UniProt Q9H9A6) | -0.0603 | 0.00373 | -0.0442 | 0.0984
22 | MCMBP C287 (UniProt Q9BTE3) | -0.13 | -0.197 | 0.291 | -0.185

Row | Target | log2 mean competition ratio ([1]; 50 µM) | log2 mean competition ratio ([1]; 200 µM) | log2 mean competition ratio ([2]; 50 µM) | log2 mean competition ratio ([2]; 200 µM)
23 | LZTR1 C427 (UniProt Q8N653) | 0.175 | -0.282 | -0.0316 | -0.134
24 | MCM3 C134 (UniProt P25205) | 0.426 | -0.42 | 0.538 | -0.459
25 | MAP3K21 C859 | -0.143 | 0.841 | -0.205 | 0.364
26 | MBTPS2 C358 (UniProt O43462) | -0.126 | 0.00369 | 0.484 | 0.0357
27 | MARVELD2 C395 (UniProt Q8N4S9) | 0.0139 | 0.139 | -0.153 | 0.0391
28 | MAP3K4 C193 (UniProt Q9Y6R4) | 0.349 | 0.51 | -0.365 | 0.0391
29 | MACF1 C4206 | 0.0483 | -0.363 | -0.0497 | -0.28
30 | MAP2K5 C109 (UniProt Q13163) | 0.278 | -0.251 | -0.0974 | 0.175
31 | MAP3K4 C1581 (UniProt Q9Y6R4) | 0.148 | 0.104 | 0.11 | 0.127
32 | MAU2 C165 (UniProt Q9Y6X3) | 0.606 | -0.309 | -0.0233 | -0.324
33 | MAP2K6 C294 (UniProt P52564) | -0.124 | 0.0465 | 0.123 | -0.282
34 | MAPK7 C194 (UniProt Q13164) | -0.292 | 0.35 | -0.395 | 0.213
35 | MAP3K20 C285 (UniProt Q9NYL2) | -0.359 | 0.0185 | -0.726 | 0.00177
36 | MAP4K5 C505 (UniProt Q9Y4K4) | -0.0487 | -0.174 | 0.29 | 0.0219
37 | MCM3AP C1309 (UniProt O60318) | -0.0179 | 0.412 | 0.286 | 0.39
38 | LRR1 C114 (UniProt Q96L50) | 0.0262 | 0.0376 | -0.262 | -0.074
39 | LUC7L3 C58 (UniProt O95232) | -0.0704 | -0.0334 | 0.191 | 0.0569
40 | MCM2 C624 (UniProt P49736) | 0.385 | -0.336 | 0.435 | -0.307
41 | MCM7 C67 (UniProt P33993) | -0.293 | 0.208 | 0.0267 | -0.231
42 | MARK3 C688 (UniProt P27448) | -0.308 | -0.0816 | -0.17 | -0.046
43 | LSG1 C475 (UniProt Q9H089) | 0.242 | 0.289 | -0.302 | -0.431
44 | LRRC47 C249 (UniProt Q8N1G4) | 0.25 | -0.136 | 0.231 | -0.0798

4 entries from above, set out differently.
Row	Target	log2 mean competition ratio ([1]; 50 µM)	log2 mean competition ratio ([1]; 200 µM)	log2 mean competition ratio ([2]; 50 µM)	log2 mean competition ratio ([2]; 200 µM)
25	MAP3K21 C859	-0.143	0.841	-0.205	0.364
26	MBTPS2 C358 (UniProt O43462)	-0.126	0.00369	0.484	0.0357
27	MARVELD2 C395 (UniProt Q8N4S9)	0.0139	0.139	-0.153	0.0391
28	MAP3K4 C193 (UniProt Q9Y6R4)	0.349	0.51	-0.365	0.0391
